Measurements reported in PubChem BioAssay AID1259286 (Sanger Institute, 2017).

Assay: 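Kinases whose loss adds to targeted drug killing of colorectal cancer cells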 (primary screen)
Cells: NCI-H630 human colorectal cancer cells
Knock-down reagent: siRNA pool against human genes
Treatment: anchor drugs BYL719 at 1 µM, cetuximab at 5 µg/ml or trametinib at 10 nM, or DMSO vehicle alone; exposure time not given
Read-out: 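Viability relative to non-targeting pool wells, averaged over replicates, with robust z-score for knock-down alone and a synergy score for each anchor drug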
Direction: viability z-score, knock-down alone: higher = more viable cells, weaker knock-down effect; viability vs control, knock-down alone: higher = more viable cells
Units: viability vs control, knock-down alone in fraction of control
Rule for the call: 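Essential call: robust z-score of viability with siRNA alone lower than -3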
Meaning of the calls: active = essential when knocked down alone; inactive = not essential alone
Here is a random part of 794 reagents tested. 17 of all reagents (2.1%) were called active. 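Calls use knock-down alone only; synergy above 0.15 marked separately; viability seems capped at control level; exposure time not given.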 Further read-outs or replicates are left out here. The record does not give: the amount of reagent, the time to read-out.

EEF2K scored viability z-score, knock-down alone -2.77; viability vs control, knock-down alone 0.878; inactive. For WNK4, the values are viability z-score, knock-down alone 0.464; viability vs control, knock-down alone 1; inactive. FGR scored viability z-score, knock-down alone 0.464; viability vs control, knock-down alone 1; inactive. Silencing of PDPK1 resulted in: viability z-score, knock-down alone -0.691; viability vs control, knock-down alone 0.956; inactive. For RPS6KA1, the entry reads viability z-score, knock-down alone -0.361; viability vs control, knock-down alone 0.969; inactive. PIK3CA showed viability z-score, knock-down alone 0.464; viability vs control, knock-down alone 1; inactive.

With knock-down of GTF2H1, the screen gave viability z-score, knock-down alone -0.913; viability vs control, knock-down alone 0.948; inactive. Depletion of NUAK1 gave: viability z-score, knock-down alone 0.464; viability vs control, knock-down alone 1; inactive. With knock-down of CASP8, the screen gave viability z-score, knock-down alone 0.464; viability vs control, knock-down alone 1; inactive. Silencing of PLK2 resulted in: viability z-score, knock-down alone 0.432; viability vs control, knock-down alone 0.999; inactive. For PIP5K1B, the values are viability z-score, knock-down alone 0.164; viability vs control, knock-down alone 0.989; inactive. FLT4 gave viability z-score, knock-down alone 0.464; viability vs control, knock-down alone 1; inactive.

TCF7L2 showed viability z-score, knock-down alone 0.464; viability vs control, knock-down alone 1; inactive. ABL2 scored viability z-score, knock-down alone -0.148; viability vs control, knock-down alone 0.977; inactive. Knock-down of ARID1A came out at: viability z-score, knock-down alone -0.142; viability vs control, knock-down alone 0.977; inactive. With knock-down of PRKAG1, the screen gave viability z-score, knock-down alone -1.92; viability vs control, knock-down alone 0.91; inactive. For BRD4 the deposit lists viability z-score, knock-down alone 0.464; viability vs control, knock-down alone 1; inactive. With knock-down of FOXP1 the results were viability z-score, knock-down alone 0.464; viability vs control, knock-down alone 1; inactive.

After knock-down of ALPK1, the record shows viability z-score, knock-down alone 0.464; viability vs control, knock-down alone 1; inactive. Knock-down of PHKG1 resulted in: viability z-score, knock-down alone -2.43; viability vs control, knock-down alone 0.89; inactive. With knock-down of RPS6KA4, the screen gave viability z-score, knock-down alone 0.464; viability vs control, knock-down alone 1; inactive. Knock-down of BRAF resulted in: viability z-score, knock-down alone -1.38; viability vs control, knock-down alone 0.93; inactive. ACVR1 scored viability z-score, knock-down alone -0.139; viability vs control, knock-down alone 0.977; inactive. For TGFBR2 the deposit lists viability z-score, knock-down alone 0.464; viability vs control, knock-down alone 1; inactive.

With knock-down of CDC73, the record shows viability z-score, knock-down alone -2.65; viability vs control, knock-down alone 0.882; inactive. Against FXN the deposit lists viability z-score, knock-down alone 0.464; viability vs control, knock-down alone 1; inactive. CAMK2G showed viability z-score, knock-down alone 0.464; viability vs control, knock-down alone 1; inactive. For BPTF, the entry reads viability z-score, knock-down alone 0.207; viability vs control, knock-down alone 0.99; inactive. Knock-down of PAK1 gave: viability z-score, knock-down alone 0.464; viability vs control, knock-down alone 1; inactive. MAP3K4 showed viability z-score, knock-down alone 0.404; viability vs control, knock-down alone 0.998; inactive.

After knock-down of AK7 the results were viability z-score, knock-down alone -1.2; viability vs control, knock-down alone 0.937; inactive. After knock-down of LATS1 the results were viability z-score, knock-down alone 0.464; viability vs control, knock-down alone 1; inactive. After knock-down of DYRK1A the results were viability z-score, knock-down alone 0.464; viability vs control, knock-down alone 1; inactive. Silencing of CSNK1G2 resulted in: viability z-score, knock-down alone 0.464; viability vs control, knock-down alone 1; inactive. After knock-down of STK17B, the screen gave viability z-score, knock-down alone -5.74; viability vs control, knock-down alone 0.765; active. Silencing of MAP3K14 gave: viability z-score, knock-down alone -0.871; viability vs control, knock-down alone 0.95; inactive.

4 entries already listed, sorted by “viability z-score, knock-down alone”, descending:
FGR | viability z-score, knock-down alone = 0.464; viability vs control, knock-down alone = 1; Outcome = inactive
PIK3CA | viability z-score, knock-down alone = 0.464; viability vs control, knock-down alone = 1; Outcome = inactive
RPS6KA1 | viability z-score, knock-down alone = -0.361; viability vs control, knock-down alone = 0.969; Outcome = inactive
PDPK1 | viability z-score, knock-down alone = -0.691; viability vs control, knock-down alone = 0.956; Outcome = inactive
